This is one part of the list.
Tests used:
Assay in all cases: log2 fold change, soluble protein after heating vs DMSO (PISA); higher = thermal stabilisation; K562 lysate, 10 uM; active = over 0.2 and 3.5 SD of the protein, either way, in both replicates (recomputed)
vemurafenib = compound: CCCS(=O)(=O)Nc1ccc(F)c(C(=O)c2c[nH]c3ncc(-c4ccc(Cl)cc4)cc23)c1F [vemurafenib]
How it was run: (§1)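 Values give the log-two fold change in thermal stability against solvent controls, from duplicates. Crude K562 extract at 1 mg/mL protein, made by dounce homogenisation in PBS pH 7.4 with 1 mM MgCl2, was treated with 10 μM compound for 30 min. After 3 min heating across 48°C-58°C, aliquots were pooled, adjusted to 0.5% NP-40 at 4°C and centrifuged at 21,000xg for 90 min. The supernatant was measured by TMTpro 16plex LC-MS/MS with channel sums equalised.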

Protein sequences, listed by entry. Tags and fused reporters are not part of them. Lines headed by an entry give the natural chain unless they say otherwise; changes in a name come on top.
UniProt Q6UXV4: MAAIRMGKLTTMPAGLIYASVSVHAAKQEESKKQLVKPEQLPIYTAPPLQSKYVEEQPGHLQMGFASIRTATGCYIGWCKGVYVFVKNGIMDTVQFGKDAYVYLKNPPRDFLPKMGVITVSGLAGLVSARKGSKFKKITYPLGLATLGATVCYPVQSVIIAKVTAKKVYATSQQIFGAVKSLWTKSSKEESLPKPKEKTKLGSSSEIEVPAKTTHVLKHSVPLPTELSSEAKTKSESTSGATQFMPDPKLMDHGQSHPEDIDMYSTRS
UniProt Q9NRW3: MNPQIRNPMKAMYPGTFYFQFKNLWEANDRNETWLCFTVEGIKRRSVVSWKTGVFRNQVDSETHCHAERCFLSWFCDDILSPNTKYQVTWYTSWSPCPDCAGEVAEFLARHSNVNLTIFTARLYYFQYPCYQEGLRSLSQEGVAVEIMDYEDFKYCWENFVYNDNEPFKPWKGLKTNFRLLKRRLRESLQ
UniProt P53367: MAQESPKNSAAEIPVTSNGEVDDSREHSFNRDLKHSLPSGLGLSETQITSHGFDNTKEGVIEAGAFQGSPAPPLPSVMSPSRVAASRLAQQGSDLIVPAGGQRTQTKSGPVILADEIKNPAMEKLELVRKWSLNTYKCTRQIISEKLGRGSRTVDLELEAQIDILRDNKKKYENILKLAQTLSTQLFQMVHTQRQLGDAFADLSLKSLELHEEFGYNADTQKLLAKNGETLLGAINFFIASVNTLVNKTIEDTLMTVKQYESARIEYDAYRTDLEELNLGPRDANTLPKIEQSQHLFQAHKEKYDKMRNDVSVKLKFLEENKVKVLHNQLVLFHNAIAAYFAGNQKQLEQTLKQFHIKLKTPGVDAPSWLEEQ
UniProt P53365: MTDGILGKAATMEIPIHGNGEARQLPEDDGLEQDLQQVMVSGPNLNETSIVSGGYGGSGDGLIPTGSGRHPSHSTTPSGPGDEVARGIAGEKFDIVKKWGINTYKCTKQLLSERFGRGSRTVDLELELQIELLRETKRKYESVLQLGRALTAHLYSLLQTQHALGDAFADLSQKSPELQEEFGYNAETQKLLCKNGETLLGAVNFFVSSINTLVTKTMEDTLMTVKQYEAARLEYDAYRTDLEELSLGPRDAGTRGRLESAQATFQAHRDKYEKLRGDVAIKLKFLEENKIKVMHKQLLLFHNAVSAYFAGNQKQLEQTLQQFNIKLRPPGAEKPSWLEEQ
UniProt Q9Y6D5: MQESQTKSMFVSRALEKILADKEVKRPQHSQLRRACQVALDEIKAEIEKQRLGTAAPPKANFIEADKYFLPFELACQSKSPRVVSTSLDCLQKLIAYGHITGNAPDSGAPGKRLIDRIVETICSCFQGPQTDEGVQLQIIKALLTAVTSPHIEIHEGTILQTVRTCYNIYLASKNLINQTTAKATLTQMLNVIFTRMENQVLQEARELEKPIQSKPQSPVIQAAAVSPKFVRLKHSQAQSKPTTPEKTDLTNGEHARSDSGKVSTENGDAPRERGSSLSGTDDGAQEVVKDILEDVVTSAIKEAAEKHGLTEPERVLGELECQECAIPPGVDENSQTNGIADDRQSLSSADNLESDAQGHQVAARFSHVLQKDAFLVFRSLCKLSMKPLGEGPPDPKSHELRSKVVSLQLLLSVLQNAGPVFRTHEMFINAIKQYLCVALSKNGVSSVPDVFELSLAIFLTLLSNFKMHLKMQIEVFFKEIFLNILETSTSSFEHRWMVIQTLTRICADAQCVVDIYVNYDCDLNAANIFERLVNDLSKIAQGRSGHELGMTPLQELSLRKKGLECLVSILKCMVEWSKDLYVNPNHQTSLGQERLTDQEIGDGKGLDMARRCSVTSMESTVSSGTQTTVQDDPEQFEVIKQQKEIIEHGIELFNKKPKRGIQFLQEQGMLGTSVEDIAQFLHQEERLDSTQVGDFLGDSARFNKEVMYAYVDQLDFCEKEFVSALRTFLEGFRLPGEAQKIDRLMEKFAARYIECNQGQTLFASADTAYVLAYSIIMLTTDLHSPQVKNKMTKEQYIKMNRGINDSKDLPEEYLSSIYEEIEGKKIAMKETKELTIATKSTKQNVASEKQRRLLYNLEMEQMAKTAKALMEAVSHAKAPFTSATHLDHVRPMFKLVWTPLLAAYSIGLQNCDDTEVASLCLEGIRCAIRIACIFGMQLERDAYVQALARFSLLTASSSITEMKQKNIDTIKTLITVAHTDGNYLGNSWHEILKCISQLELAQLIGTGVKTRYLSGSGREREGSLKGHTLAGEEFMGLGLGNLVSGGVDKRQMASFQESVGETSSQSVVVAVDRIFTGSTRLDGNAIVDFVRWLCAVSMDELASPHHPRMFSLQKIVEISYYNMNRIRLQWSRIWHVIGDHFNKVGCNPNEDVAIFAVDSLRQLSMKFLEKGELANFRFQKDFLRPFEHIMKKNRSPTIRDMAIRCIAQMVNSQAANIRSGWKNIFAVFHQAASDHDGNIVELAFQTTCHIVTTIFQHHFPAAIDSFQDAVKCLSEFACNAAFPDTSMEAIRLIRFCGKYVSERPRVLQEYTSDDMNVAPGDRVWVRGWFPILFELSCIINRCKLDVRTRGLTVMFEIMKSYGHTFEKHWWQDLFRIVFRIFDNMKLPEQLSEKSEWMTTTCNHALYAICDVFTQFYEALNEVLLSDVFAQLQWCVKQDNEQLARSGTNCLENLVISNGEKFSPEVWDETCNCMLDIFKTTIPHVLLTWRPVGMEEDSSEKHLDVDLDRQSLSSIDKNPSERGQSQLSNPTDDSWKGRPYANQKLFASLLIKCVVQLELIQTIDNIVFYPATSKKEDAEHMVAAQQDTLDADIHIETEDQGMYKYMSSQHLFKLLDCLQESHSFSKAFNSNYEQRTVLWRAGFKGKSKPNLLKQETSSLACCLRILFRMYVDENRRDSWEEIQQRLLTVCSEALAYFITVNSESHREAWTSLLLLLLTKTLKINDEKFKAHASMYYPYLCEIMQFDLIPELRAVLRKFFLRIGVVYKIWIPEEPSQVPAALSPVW
UniProt Q92974: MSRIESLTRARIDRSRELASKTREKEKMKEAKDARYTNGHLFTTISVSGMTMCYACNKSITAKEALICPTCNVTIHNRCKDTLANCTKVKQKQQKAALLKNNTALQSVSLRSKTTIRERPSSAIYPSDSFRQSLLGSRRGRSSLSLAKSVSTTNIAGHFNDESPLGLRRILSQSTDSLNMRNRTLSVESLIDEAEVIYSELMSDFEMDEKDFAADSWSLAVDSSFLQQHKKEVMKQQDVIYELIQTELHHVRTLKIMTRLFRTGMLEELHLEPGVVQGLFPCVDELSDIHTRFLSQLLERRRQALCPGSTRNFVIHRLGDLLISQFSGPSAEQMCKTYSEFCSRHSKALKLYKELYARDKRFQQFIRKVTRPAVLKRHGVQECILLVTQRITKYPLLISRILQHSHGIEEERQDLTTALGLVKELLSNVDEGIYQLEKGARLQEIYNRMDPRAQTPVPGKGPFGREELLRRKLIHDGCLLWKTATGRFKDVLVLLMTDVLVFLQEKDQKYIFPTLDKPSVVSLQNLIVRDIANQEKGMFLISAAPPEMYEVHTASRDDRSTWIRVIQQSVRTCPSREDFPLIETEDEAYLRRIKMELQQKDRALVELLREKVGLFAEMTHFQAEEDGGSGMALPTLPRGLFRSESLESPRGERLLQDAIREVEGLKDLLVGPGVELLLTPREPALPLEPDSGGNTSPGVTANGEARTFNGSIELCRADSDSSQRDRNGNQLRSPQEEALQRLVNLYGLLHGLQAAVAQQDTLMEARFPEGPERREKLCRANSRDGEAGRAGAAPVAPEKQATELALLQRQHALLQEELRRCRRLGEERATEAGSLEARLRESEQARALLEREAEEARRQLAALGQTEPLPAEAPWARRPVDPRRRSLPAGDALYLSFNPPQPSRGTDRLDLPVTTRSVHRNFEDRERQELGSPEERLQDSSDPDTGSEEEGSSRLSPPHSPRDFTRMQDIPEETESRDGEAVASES
UniProt P02649, whole entry, looked up: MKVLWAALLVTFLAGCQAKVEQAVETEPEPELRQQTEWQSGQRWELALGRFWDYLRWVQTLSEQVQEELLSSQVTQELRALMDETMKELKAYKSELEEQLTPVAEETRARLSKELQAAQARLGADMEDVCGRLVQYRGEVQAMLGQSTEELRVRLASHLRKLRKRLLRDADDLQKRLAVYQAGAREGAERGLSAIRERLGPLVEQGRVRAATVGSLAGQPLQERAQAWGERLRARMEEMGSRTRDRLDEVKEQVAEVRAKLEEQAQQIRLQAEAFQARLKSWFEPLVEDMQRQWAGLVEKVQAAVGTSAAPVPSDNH
UniProt Q15041, whole entry, looked up: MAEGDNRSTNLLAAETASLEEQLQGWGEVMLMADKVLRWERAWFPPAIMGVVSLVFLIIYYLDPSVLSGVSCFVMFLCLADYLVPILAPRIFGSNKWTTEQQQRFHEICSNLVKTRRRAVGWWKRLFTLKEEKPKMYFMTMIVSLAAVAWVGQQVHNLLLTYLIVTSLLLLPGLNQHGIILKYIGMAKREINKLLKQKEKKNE
UniProt Q9NXU5: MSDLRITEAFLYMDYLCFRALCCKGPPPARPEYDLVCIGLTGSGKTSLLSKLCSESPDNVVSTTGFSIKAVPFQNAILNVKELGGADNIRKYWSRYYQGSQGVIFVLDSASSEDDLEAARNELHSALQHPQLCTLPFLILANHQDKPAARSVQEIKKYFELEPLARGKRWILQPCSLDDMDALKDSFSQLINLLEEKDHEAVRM
UniProt Q9NRY4: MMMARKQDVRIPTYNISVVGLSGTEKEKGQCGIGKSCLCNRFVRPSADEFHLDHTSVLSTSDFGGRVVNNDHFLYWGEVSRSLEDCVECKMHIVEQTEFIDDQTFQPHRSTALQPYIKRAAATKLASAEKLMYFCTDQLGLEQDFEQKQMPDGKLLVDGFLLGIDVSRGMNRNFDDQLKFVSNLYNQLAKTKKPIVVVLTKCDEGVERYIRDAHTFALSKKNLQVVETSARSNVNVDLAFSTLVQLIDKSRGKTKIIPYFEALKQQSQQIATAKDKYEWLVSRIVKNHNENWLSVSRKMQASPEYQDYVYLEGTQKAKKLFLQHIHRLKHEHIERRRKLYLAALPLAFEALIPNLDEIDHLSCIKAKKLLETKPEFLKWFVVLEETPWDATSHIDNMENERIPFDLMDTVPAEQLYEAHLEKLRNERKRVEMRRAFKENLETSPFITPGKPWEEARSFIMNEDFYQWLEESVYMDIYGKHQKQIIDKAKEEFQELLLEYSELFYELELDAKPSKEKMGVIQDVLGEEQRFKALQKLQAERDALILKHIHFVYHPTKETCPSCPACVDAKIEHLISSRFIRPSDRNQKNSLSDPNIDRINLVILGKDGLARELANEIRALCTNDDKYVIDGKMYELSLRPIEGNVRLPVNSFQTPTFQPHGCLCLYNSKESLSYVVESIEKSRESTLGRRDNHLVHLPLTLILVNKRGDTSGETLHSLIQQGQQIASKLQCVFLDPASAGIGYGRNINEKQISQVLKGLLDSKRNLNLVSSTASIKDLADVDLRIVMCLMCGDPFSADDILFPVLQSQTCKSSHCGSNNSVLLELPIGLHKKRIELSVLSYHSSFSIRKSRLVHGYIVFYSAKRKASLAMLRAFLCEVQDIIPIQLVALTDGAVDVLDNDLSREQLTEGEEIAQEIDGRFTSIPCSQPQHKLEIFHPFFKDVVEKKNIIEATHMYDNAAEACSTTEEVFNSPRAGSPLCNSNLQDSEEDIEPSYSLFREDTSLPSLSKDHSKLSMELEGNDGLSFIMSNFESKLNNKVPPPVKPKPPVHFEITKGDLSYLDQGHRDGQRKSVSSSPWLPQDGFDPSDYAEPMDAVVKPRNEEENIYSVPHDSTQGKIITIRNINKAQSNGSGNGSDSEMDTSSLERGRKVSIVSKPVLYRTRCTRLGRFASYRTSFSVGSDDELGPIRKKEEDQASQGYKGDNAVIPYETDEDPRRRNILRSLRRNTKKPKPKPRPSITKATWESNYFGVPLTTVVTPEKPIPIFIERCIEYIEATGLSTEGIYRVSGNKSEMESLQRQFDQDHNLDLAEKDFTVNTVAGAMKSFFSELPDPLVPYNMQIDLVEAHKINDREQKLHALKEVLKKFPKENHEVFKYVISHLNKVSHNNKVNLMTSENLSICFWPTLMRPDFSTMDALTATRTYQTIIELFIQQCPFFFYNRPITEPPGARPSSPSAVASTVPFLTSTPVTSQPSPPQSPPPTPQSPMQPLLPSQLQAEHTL
UniProt O75915: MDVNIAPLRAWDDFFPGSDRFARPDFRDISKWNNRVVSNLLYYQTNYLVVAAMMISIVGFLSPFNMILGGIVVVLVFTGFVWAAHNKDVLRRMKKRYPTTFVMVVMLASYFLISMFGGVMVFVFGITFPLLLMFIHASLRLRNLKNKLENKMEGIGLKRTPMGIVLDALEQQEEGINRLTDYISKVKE

[1] = compound: CCCS(=O)(=O)Nc1ccc(F)c(C(=O)c2c[nH]c3ncc(Cl)cc23)c1F
How it was run: as §1

barasertib = compound: CCN(CCCOc1ccc2c(Nc3cc(CC(=O)Nc4cccc(F)c4)[nH]n3)ncnc2c1)CCOP(=O)(O)O [barasertib]
How it was run: as §1

[2] = compound: CC[C@@H]1C(=O)N(C)c2cnc(Nc3ccc(C(=O)NC4CCN(C)CC4)cc3OC)nc2N1C1CCCC1
How it was run: as §1

volasertib = compound: CC[C@@H]1C(=O)N(C)c2cnc(Nc3ccc(C(=O)N[C@H]4CC[C@H](N5CCN(CC6CC6)CC5)CC4)cc3OC)nc2N1C(C)C [volasertib]
How it was run: as §1

[3] = compound: CCn1c(C(=O)N(C2CC2)C2CC2)cc2c3c(ncn3C)c(Nc3cc(C)n(C)n3)nc21
How it was run: as §1

[4] = compound: CCn1cc(-c2ccnc3[nH]c(-c4cccc(CN(C)C)c4)cc23)c(-c2ccc(NC(=O)N(C)C)cc2)n1
How it was run: as §1

[5] = compound: CN1CCC(CNc2ccc3ncc(-c4cccc(OC(F)(F)F)c4)n3n2)CC1
How it was run: as §1

saracatinib = compound: CN1CCN(CCOc2cc(OC3CCOCC3)c3c(Nc4c(Cl)ccc5c4OCO5)ncnc3c2)CC1 [saracatinib]
How it was run: as §1

sotrastaurin = compound: CN1CCN(c2nc(C3=C(c4c[nH]c5ccccc45)C(=O)NC3=O)c3ccccc3n2)CC1 [sotrastaurin]
How it was run: as §1

alvocidib = compound: CN1CC[C@H](c2c(O)cc(O)c3c(=O)cc(-c4ccccc4Cl)oc23)[C@H](O)C1 [alvocidib]
How it was run: as §1

Tubastatin A = compound: CN1CCc2c(c3ccccc3n2Cc2ccc(C(=O)NO)cc2)C1 [Tubastatin A]
How it was run: as §1

[6] = compound: CNC(=O)C1=CC=CC=C1NC2=NC(=NC=C2Cl)NC3=C(C=C(C=C3)N4CCOCC4)OC
How it was run: as §1

defactinib = compound: CNC(=O)c1ccc(Nc2ncc(C(F)(F)F)c(NCc3nccnc3N(C)S(C)(=O)=O)n2)cc1 [defactinib]
How it was run: as §1

[7] = compound: CNc1nc(-c2ccc3c(N)n[nH]c3c2)cc(N2C[C@@H](C(=O)NC3CCCCC3)CC[C@H]2C)n1
How it was run: as §1

encorafenib = compound: COC(=O)N[C@@H](C)CNc1nccc(-c2cn(C(C)C)nc2-c2cc(Cl)cc(NS(C)(=O)=O)c2F)n1 [encorafenib]
How it was run: as §1

[8] = compound: COC(=O)[C@H](CCSC)NC(=O)C1=C(C=C(C=C1)NC[C@H](CS)N)C2=CC=CC=C2
How it was run: as §1

alisertib = compound: COc1cc(Nc2ncc3c(n2)-c2ccc(Cl)cc2C(c2c(F)cccc2OC)=NC3)ccc1C(=O)O [alisertib]
How it was run: as §1

[9] = compound: COc1cc2nc(-c3cc(F)ccc3O)nc(N[C@@H]3CNC[C@H]3C(C)(C)O)c2cc1OC
How it was run: as §1

gefitinib = compound: COc1cc2ncnc(Nc3ccc(F)c(Cl)c3)c2cc1OCCCN1CCOCC1 [gefitinib]
How it was run: as §1

Row | Target | log2 fold change (vemurafenib) | log2 fold change [1] | log2 fold change (barasertib) | log2 fold change [2] | log2 fold change (volasertib) | log2 fold change [3] | log2 fold change [4] | log2 fold change [5] | log2 fold change (saracatinib) | log2 fold change (sotrastaurin) | log2 fold change (alvocidib) | log2 fold change (Tubastatin A) | log2 fold change [6] | log2 fold change (defactinib) | log2 fold change [7] | log2 fold change (encorafenib) | log2 fold change [8] | log2 fold change (alisertib) | log2 fold change [9] | log2 fold change (gefitinib)
1 | APOOL (UniProt Q6UXV4) | inactive: -0.006 | inactive: 0.032 | inactive: -0.001 | inactive: 0.036 | inactive: 0.031 | inactive: -0.018 | inactive: -0.087 | inactive: 0.013 | inactive: -0.007 | inactive: -0.011 | inactive: -0.014 | inactive: 0.021 | inactive: 0.028 | inactive: -0.001 | inactive: 0.035 | inactive: -0.003 | inactive: 0.011 | inactive: 0.024 | inactive: 0.014 | inactive: -0.046
2 | APOBEC3C (UniProt Q9NRW3) | inactive: -0.027 | inactive: 0.021 | inactive: -0.006 | inactive: 0.075 | inactive: -0.014 | inactive: -0.081 | inactive: -0.038 | inactive: 0.034 | inactive: 0.018 | inactive: 0.114 | inactive: -0.019 | inactive: -0.121 | inactive: 0.018 | inactive: 0.013 | inactive: -0.007 | inactive: 0.047 | inactive: -0.067 | inactive: 0.009 | inactive: 0.003 | inactive: -0.005
3 | API5 (UniProt Q9BZZ5) | inactive: -0.028 | inactive: 0 | inactive: -0.004 | inactive: 0.011 | inactive: 0.016 | inactive: -0.002 | inactive: -0.16 | inactive: 0.096 | inactive: 0.003 | inactive: 0.017 | inactive: -0.078 | inactive: 0.028 | inactive: -0.026 | inactive: -0.002 | inactive: 0.022 | inactive: 0.006 | inactive: -0.015 | inactive: 0.017 | inactive: 0.01 | inactive: 0.004
4 | ARFIP1 (UniProt P53367) | inactive: 0.208 | inactive: -0.003 | inactive: 0.239 | inactive: -0.002 | inactive: -0.032 | inactive: -0.022 | inactive: 1.12 | inactive: -0.018 | inactive: -0.02 | inactive: 0.011 | inactive: 0.015 | inactive: -0.014 | inactive: 0.004 | inactive: -0.054 | inactive: -0.007 | inactive: -0.016 | inactive: 0.016 | inactive: -0.011 | inactive: -0.015 | inactive: 0.006
5 | ARFIP2 (UniProt P53365) | inactive: 0.009 | inactive: -0.022 | inactive: 0.037 | inactive: 0.072 | inactive: -0.003 | inactive: -0.008 | inactive: 0.009 | inactive: -0.019 | inactive: 0.078 | inactive: -0.042 | inactive: 0.017 | inactive: -0.04 | inactive: -0.019 | inactive: 0.032 | inactive: -0.013 | inactive: -0.014 | inactive: -0.01 | inactive: -0.033 | inactive: -0.006 | inactive: 0.011
6 | ARFGEF2 (UniProt Q9Y6D5) | inactive: -0.035 | inactive: 0.028 | inactive: 0.038 | inactive: -0.044 | inactive: -0.065 | inactive: 0.013 | inactive: -0.033 | inactive: -0.037 | inactive: 0.055 | inactive: -0.01 | inactive: 0.018 | inactive: -0.006 | inactive: 0.009 | inactive: 0.069 | inactive: 0.015 | inactive: 0.011 | inactive: -0.009 | inactive: 0.012 | inactive: 0.006 | inactive: -0.01
7 | APPL1 (UniProt Q9UKG1) | inactive: 0.032 | inactive: 0.02 | inactive: 0.002 | inactive: 0.002 | inactive: -0.019 | inactive: -0.01 | inactive: 0.087 | inactive: -0.031 | inactive: 0.002 | inactive: -0.003 | inactive: 0.024 | inactive: 0.029 | inactive: 0.017 | inactive: -0.029 | inactive: 0.077 | inactive: -0.056 | inactive: 0.052 | inactive: 0.011 | inactive: 0.021 | inactive: -0.02
8 | ARAP1 (UniProt Q96P48) | inactive: -0.014 | inactive: 0.006 | inactive: 0.013 | inactive: -0.034 | inactive: -0.085 | inactive: 0.029 | inactive: -0.076 | inactive: 0.015 | inactive: -0.001 | inactive: 0.006 | inactive: -0.027 | inactive: -0.135 | inactive: 0.033 | inactive: 0.075 | inactive: 0.017 | inactive: 0.06 | inactive: 0.078 | inactive: 0.015 | inactive: 0.003 | inactive: 0.041
9 | ARHGEF18 (UniProt Q6ZSZ5) | inactive: -0.19 | inactive: 0.04 | inactive: -0.002 | inactive: 0.018 | inactive: -0.074 | inactive: -0.032 | inactive: -0.049 | inactive: 0.077 | inactive: 0.023 | inactive: 0.022 | inactive: -0.084 | inactive: 0.037 | inactive: -0.003 | inactive: 0.027 | inactive: -0.04 | inactive: -0.01 | inactive: 0.099 | inactive: 0.058 | inactive: -0.027 | inactive: 0.039
10 | ARHGEF2 (UniProt Q92974) | inactive: -0.006 | inactive: 0.013 | inactive: -0.002 | inactive: 0 | inactive: -0.026 | inactive: -0.021 | inactive: -0.02 | inactive: -0.003 | inactive: 0.009 | inactive: 0.027 | inactive: -0.009 | inactive: -0.081 | inactive: 0.047 | inactive: -0.004 | inactive: 0.058 | inactive: 0.07 | inactive: 0.071 | inactive: 0.018 | inactive: -0.005 | inactive: 0.007
11 | ARID4B (UniProt Q4LE39) | inactive: -0.001 | inactive: 0.025 | inactive: 0.073 | inactive: 0.09 | inactive: -0.017 | inactive: 0.012 | inactive: 0.067 | inactive: -0.036 | inactive: 0.019 | inactive: -0.005 | inactive: 0.003 | inactive: 0.03 | inactive: 0.011 | inactive: -0.007 | inactive: 0.03 | inactive: -0.009 | inactive: 0.008 | inactive: 0.005 | inactive: 0.002 | inactive: 0.026
12 | APOE (UniProt P02649) | inactive: -0.045 | inactive: -0.029 | inactive: 0.011 | inactive: -0.018 | inactive: 0.005 | inactive: -0.05 | inactive: 0.031 | inactive: -0.043 | inactive: 0.031 | inactive: 0.023 | inactive: 0.044 | inactive: 0.025 | inactive: 0.041 | inactive: 0.015 | inactive: -0.007 | inactive: 0.046 | inactive: -0.03 | inactive: -0.123 | inactive: -0.02 | inactive: 0.015
13 | ARL6IP1 (UniProt Q15041) | inactive: -0.013 | inactive: -0.051 | inactive: -0.113 | inactive: 0.042 | inactive: 0.004 | inactive: 0.008 | inactive: -0.086 | inactive: 0.064 | inactive: -0.021 | inactive: -0.036 | inactive: -0.013 | inactive: 0.009 | inactive: -0.073 | inactive: -0.046 | inactive: 0.061 | inactive: 0.013 | inactive: 0.023 | inactive: -0.021 | inactive: 0.029 | inactive: 0.004
14 | ARL15 (UniProt Q9NXU5) | inactive: -0.057 | inactive: -0.019 | inactive: 0.002 | inactive: -0.082 | inactive: -0.009 | inactive: 0.035 | active: 0.765 | inactive: -0.119 | inactive: -0.01 | inactive: 0.049 | inactive: 0.177 | inactive: -0.002 | inactive: -0.013 | inactive: -0.013 | inactive: -0.021 | inactive: 0.037 | inactive: -0.211 | inactive: 0.005 | inactive: 0 | inactive: -0.057
15 | ARHGAP35 (UniProt Q9NRY4) | inactive: 0.029 | inactive: -0.011 | inactive: 0.008 | inactive: 0.019 | inactive: -0.053 | inactive: -0.012 | inactive: -0.046 | inactive: -0.023 | inactive: 0.007 | inactive: 0.003 | inactive: -0.017 | inactive: -0.041 | inactive: 0.02 | inactive: 0.023 | inactive: -0.011 | inactive: 0.006 | inactive: 0.014 | inactive: 0.021 | inactive: 0 | inactive: -0.019
16 | ARL6IP5 (UniProt O75915) | inactive: -0.065 | inactive: -0.006 | inactive: 0 | inactive: -0.124 | inactive: 0.015 | inactive: -0.015 | inactive: 0.187 | inactive: -0.124 | inactive: -0.013 | inactive: 0.007 | inactive: 0.097 | inactive: 0.003 | inactive: -0.035 | inactive: 0.022 | inactive: -0.034 | inactive: 0.027 | inactive: 0.015 | inactive: 0.1 | inactive: -0.008 | inactive: -0.014

Whole records, quoted from the list. Values in the order: log2 fold change (vemurafenib)	log2 fold change [1]	log2 fold change (barasertib)	log2 fold change [2]	log2 fold change (volasertib)	log2 fold change [3]	log2 fold change [4]	log2 fold change [5]	log2 fold change (saracatinib)	log2 fold change (sotrastaurin)	log2 fold change (alvocidib)	log2 fold change (Tubastatin A)	log2 fold change [6]	log2 fold change (defactinib)	log2 fold change [7]	log2 fold change (encorafenib)	log2 fold change [8]	log2 fold change (alisertib)	log2 fold change [9]	log2 fold change (gefitinib)
APOOL (UniProt Q6UXV4) in the list: inactive: -0.006	inactive: 0.032	inactive: -0.001	inactive: 0.036	inactive: 0.031	inactive: -0.018	inactive: -0.087	inactive: 0.013	inactive: -0.007	inactive: -0.011	inactive: -0.014	inactive: 0.021	inactive: 0.028	inactive: -0.001	inactive: 0.035	inactive: -0.003	inactive: 0.011	inactive: 0.024	inactive: 0.014	inactive: -0.046
API5 (UniProt Q9BZZ5) in the list: inactive: -0.028	inactive: 0	inactive: -0.004	inactive: 0.011	inactive: 0.016	inactive: -0.002	inactive: -0.16	inactive: 0.096	inactive: 0.003	inactive: 0.017	inactive: -0.078	inactive: 0.028	inactive: -0.026	inactive: -0.002	inactive: 0.022	inactive: 0.006	inactive: -0.015	inactive: 0.017	inactive: 0.01	inactive: 0.004

Source: the supplement of paper PMC10849652
